Data: paper PMC9238092
These are yes or no findings as the source states them, for the method shown. In cells and extracts the contact can be indirect. Tags and fused reporters may be left off the sequences shown.

Protein sequences, listed by entry. Tags and fused reporters are not part of them.
UniProt Q01371: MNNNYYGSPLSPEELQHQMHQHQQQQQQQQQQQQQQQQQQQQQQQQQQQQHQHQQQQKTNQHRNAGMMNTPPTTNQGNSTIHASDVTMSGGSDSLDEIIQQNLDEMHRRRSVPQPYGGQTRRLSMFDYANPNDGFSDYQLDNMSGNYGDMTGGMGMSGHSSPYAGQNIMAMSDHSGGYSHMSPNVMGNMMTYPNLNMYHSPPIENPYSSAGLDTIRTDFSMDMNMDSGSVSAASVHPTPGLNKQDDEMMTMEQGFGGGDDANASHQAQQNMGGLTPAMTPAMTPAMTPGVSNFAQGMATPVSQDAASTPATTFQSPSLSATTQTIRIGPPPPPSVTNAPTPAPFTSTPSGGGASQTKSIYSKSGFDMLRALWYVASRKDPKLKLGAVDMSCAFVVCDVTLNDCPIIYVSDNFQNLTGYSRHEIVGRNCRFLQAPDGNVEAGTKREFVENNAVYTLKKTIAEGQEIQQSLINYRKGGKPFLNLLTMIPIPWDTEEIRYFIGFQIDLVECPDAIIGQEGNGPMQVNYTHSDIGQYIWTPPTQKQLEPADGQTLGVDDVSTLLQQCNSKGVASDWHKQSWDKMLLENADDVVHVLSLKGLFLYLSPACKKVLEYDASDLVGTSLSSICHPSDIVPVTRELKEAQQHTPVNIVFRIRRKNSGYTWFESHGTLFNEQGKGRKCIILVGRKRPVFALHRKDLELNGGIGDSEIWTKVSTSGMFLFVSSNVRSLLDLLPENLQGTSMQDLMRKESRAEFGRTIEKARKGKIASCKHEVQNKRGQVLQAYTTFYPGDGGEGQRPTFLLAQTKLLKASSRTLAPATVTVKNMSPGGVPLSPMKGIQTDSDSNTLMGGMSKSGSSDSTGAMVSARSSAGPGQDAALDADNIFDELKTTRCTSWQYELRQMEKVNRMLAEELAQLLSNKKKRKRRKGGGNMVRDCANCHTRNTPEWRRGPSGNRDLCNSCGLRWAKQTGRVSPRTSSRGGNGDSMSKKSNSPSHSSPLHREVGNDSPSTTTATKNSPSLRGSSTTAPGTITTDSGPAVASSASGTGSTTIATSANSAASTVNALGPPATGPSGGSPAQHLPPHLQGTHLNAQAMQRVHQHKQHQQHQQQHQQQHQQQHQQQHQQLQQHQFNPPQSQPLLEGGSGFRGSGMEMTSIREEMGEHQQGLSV

Target: T1, VE-1 tagged with the FLAG epitope (ve-1^FLAG allele) (N. crassa) (UniProt Q1K5S5)
T1 sequence: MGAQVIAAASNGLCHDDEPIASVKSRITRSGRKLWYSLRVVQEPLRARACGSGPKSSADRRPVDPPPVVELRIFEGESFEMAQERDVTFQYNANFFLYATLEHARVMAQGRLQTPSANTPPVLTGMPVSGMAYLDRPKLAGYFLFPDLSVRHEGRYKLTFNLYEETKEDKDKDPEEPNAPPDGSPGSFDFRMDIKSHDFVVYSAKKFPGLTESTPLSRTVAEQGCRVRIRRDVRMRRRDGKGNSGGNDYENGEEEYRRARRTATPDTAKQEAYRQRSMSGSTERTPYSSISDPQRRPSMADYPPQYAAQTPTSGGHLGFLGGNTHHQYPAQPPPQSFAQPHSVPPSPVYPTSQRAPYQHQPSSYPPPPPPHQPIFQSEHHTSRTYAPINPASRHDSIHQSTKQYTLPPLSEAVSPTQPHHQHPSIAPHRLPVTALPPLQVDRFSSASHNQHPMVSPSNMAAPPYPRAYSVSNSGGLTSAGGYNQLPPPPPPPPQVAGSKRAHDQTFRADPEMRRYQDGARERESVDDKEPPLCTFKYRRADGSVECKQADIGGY
Assay: co-IP; VE-1 FLAG precipitated with M2-FLAG agarose beads from extracts of formaldehyde-fixed vegetative mycelia of the ve-1^FLAG strain (48 h, 30 °C; light, dark or dark then 30 min light); IPB buffer (50 mM Tris-HCl pH 7.5, 150 mM NaCl, 1.5 mM MgCl2, 0.1% NP-40), 3 h at 4 °C; western blot for WC-1

- binding: no binding
Substance: WC-1, blue-light photoreceptor and Zn-finger transcription factor (from UniProt Q01371 1-1167)
